Assay results: the supplement of paper PMC12823440, “Inhibitors supercharge kinase turnover through native proteolytic circuits” (Nature, 2025)
Structures can show the parent of a compound that is named as a salt. Some of the results follow. Hit calls seldom repeat between salt and free forms of one compound.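 Kinases, fused to nanoluciferase, were expressed in K562 cells; luminescence was measured every 4 h from 2 to 18 h as percent of control (DMSO = 100%, positive control = 0%). A time point is decreased if signal falls significantly (2 sigma). Hits were called by the authors by a rule that is not shown; the count of time points alone does not decide it.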

Chains of the proteins cited; added tags and fusions are not shown. Lines headed by an entry give the natural chain unless they say otherwise; changes in a name come on top.
UniProt P07949, whole entry, looked up: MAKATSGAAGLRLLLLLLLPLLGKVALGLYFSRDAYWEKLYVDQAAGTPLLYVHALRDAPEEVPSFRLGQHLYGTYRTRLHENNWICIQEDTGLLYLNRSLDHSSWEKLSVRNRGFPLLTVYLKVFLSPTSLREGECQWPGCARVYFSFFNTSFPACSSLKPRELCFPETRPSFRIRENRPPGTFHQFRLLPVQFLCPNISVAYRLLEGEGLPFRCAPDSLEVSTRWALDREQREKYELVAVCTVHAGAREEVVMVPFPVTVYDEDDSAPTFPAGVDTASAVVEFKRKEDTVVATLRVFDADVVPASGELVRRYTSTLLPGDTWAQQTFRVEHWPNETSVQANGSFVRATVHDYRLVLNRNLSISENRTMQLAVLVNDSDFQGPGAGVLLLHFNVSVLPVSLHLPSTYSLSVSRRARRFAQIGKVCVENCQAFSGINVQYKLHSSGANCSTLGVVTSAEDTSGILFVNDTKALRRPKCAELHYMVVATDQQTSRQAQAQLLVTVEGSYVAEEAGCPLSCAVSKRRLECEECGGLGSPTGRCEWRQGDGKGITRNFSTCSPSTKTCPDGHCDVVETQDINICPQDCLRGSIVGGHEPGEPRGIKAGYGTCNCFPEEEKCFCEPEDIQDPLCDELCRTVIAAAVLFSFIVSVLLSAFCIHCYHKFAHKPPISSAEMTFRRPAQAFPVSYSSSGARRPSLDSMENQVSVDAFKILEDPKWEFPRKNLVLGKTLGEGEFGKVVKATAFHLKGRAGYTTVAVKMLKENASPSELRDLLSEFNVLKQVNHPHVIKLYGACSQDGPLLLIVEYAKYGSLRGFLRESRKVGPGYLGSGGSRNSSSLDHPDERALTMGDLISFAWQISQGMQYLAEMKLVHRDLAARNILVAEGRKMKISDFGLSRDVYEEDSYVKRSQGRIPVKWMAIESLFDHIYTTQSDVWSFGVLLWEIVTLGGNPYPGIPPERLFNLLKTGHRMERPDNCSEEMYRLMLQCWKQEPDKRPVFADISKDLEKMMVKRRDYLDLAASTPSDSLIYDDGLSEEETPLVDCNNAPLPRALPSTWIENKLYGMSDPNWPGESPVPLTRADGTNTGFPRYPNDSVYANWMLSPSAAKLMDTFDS
UniProt P07949, whole entry M918T, looked up: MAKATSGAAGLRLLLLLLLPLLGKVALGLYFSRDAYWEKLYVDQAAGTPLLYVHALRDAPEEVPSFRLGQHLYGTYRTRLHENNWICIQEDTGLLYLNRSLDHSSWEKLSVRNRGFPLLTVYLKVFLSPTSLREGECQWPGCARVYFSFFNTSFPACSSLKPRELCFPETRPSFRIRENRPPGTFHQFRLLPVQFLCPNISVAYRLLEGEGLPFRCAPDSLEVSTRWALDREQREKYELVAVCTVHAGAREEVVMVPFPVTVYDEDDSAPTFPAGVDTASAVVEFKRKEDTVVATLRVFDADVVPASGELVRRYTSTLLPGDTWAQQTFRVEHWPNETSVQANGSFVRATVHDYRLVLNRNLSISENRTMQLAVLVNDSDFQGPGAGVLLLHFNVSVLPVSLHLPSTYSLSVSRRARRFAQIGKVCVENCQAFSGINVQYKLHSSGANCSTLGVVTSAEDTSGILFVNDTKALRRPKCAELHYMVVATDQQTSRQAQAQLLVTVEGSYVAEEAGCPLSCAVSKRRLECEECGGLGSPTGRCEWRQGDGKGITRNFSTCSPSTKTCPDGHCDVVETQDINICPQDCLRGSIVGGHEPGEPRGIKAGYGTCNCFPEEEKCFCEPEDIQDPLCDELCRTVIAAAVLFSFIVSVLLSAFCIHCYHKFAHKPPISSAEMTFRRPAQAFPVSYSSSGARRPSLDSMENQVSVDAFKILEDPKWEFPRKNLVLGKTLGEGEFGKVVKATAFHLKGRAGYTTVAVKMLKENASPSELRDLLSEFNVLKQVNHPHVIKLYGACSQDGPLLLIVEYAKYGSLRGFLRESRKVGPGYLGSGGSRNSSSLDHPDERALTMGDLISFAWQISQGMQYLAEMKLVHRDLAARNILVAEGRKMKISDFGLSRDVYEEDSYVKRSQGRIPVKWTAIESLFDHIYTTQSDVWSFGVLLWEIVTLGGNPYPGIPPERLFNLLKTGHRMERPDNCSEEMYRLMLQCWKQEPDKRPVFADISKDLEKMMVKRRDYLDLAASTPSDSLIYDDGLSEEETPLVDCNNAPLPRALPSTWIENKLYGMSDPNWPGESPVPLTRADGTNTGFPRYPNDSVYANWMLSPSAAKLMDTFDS
UniProt Q9BRS2: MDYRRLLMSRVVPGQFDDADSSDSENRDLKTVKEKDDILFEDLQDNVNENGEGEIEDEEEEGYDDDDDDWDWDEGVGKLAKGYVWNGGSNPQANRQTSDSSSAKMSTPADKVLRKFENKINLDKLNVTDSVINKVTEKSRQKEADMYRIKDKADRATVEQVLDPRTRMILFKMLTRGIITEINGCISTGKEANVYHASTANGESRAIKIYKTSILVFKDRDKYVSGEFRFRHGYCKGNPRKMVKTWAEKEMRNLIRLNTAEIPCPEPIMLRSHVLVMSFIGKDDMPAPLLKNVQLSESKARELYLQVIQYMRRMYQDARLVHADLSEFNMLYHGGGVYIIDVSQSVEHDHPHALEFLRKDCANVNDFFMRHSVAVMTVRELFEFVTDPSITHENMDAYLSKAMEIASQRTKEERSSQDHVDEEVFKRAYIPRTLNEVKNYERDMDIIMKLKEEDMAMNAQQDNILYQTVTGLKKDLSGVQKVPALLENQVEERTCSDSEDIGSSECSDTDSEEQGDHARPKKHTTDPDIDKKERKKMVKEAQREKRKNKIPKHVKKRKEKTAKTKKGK
UniProt Q13546: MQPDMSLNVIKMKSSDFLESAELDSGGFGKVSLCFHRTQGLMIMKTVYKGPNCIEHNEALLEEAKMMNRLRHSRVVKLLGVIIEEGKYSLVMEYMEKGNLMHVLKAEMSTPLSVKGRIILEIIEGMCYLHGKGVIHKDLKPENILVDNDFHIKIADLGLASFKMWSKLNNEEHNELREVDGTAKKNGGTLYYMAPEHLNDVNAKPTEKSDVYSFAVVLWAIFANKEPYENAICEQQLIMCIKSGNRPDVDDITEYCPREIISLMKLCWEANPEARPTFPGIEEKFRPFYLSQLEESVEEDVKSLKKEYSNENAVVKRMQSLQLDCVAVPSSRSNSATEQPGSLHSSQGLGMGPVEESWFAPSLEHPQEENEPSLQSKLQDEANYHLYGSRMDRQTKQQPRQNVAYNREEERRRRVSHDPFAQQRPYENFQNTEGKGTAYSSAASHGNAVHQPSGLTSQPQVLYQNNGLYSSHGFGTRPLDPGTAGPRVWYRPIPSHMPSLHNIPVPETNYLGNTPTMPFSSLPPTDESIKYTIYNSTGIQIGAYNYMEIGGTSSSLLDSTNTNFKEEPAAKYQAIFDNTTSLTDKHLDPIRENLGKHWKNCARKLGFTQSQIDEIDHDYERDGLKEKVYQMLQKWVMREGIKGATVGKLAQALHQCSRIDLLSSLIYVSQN
UniProt Q01974, whole entry: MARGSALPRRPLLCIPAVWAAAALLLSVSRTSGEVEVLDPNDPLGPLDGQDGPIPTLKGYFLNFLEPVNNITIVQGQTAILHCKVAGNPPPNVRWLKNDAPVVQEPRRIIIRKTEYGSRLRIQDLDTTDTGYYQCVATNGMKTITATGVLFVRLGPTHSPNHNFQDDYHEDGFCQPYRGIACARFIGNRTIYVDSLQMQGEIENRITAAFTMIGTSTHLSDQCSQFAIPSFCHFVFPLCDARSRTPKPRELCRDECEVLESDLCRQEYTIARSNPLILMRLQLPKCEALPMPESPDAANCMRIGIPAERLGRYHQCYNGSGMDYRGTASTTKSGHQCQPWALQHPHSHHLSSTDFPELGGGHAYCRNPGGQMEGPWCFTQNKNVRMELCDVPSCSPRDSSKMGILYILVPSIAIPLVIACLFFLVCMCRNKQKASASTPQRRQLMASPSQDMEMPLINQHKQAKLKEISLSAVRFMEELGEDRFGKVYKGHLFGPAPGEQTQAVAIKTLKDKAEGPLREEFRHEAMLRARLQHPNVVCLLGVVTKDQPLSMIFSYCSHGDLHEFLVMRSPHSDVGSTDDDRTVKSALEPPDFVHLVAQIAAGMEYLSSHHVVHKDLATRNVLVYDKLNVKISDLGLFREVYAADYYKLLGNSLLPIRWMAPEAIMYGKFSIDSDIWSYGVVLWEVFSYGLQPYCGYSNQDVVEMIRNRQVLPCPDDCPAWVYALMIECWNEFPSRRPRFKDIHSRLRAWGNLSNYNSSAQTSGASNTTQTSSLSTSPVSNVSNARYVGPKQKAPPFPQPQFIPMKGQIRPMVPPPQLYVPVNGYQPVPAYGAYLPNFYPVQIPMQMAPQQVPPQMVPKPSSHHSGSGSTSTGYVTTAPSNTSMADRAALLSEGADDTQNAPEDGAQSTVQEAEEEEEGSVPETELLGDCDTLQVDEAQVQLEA
UniProt Q15418, whole entry: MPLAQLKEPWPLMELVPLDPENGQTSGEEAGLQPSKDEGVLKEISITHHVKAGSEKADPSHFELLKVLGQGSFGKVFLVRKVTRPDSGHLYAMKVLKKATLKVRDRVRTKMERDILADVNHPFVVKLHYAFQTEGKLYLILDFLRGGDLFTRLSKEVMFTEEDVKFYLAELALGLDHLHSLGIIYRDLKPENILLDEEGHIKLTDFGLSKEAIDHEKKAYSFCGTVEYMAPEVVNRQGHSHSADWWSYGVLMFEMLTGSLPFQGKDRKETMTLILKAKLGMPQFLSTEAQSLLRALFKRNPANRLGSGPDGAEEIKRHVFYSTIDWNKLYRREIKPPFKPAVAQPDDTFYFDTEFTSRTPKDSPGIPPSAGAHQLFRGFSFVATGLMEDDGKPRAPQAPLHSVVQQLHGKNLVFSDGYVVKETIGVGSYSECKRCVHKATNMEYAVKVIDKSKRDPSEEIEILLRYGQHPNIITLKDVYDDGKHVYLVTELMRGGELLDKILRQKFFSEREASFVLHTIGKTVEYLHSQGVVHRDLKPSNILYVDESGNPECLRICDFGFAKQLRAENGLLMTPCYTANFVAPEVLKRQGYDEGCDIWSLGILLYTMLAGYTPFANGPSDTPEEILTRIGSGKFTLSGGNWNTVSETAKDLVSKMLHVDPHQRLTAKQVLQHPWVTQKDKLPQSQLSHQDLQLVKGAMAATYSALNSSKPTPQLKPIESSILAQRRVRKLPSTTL
UniProt Q9NYA1, whole entry: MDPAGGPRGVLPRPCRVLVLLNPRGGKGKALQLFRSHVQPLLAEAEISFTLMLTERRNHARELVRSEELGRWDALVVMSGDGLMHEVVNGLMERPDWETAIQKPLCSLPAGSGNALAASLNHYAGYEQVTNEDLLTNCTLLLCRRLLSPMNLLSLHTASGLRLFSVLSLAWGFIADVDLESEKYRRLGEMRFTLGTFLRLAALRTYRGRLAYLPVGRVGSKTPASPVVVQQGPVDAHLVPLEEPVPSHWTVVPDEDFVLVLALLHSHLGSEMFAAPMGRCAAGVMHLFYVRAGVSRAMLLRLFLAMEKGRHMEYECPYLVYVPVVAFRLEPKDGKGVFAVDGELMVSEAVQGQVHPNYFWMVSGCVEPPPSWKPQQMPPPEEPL
UniProt Q9Y6E0: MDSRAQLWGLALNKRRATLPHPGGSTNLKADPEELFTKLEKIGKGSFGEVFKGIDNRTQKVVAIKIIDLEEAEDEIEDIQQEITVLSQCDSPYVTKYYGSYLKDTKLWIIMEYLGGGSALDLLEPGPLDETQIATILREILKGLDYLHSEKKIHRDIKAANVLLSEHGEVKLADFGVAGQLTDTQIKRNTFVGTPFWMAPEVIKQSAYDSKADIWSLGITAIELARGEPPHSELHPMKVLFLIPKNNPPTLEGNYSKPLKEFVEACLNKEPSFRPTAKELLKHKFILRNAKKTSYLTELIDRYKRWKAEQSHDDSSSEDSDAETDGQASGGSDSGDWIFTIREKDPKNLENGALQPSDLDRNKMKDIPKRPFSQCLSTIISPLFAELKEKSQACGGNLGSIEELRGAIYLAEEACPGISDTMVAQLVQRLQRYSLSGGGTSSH

Tests used:
Assay in all cases: kinase-Nluc reporter destabilization hit call (1 = scored as downregulated) (binary); higher = compound decreases kinase abundance
Details in all cases: K562; 2-18 h
RET = RET (UniProt P07949)
[1] = target: RET_M918T (clone: RET_mut) (UniProt P07949)
RIOK1 = RIOK1 (UniProt Q9BRS2)
RIPK1 = RIPK1 (UniProt Q13546)
RIPK2 = RIPK2 (UniProt O43353)
ROR2 = ROR2 (UniProt Q01974)
RPS6KA1 = RPS6KA1 (UniProt Q15418)
SPHK1 = SPHK1 (UniProt Q9NYA1)
SRC = SRC (UniProt P12931)
STK24 = STK24 (UniProt Q9Y6E0)

Measured: kinase-Nluc reporter destabilization hit call

CCn1c(C(=O)N(C2CC2)C2CC2)cc2c3c(ncn3C)c(Nc3cc(C)n(C)n3)nc21 (10 µM)
inactive: RET 0 | [1] 0 | RIOK1 = 0 | RIPK1 = 0 | RIPK2 = 0 | ROR2 = 0 | RPS6KA1 = 0 | SPHK1 = 0 | SRC 0 | STK24 = 0

Cc1ccc(-c2c(C(=O)CF)n(CCCO)c3ncnc(N)c23)cc1 (10 µM)
inactive: RET 0 | [1] 0 | RIOK1 = 0 | RIPK1 = 0 | RIPK2 = 0 | ROR2 = 0 | RPS6KA1 = 0 | SPHK1 = 0 | SRC 0 | STK24 = 0

Cc1cc([C@H](C)Nc2ccccc2)c2oc(N3CCOCC3)cc(=O)c2c1 (10 µM)
inactive: RET 0 | [1] 0 | RIOK1 = 0 | RIPK1 = 0 | RIPK2 = 0 | ROR2 = 0 | RPS6KA1 = 0 | SPHK1 = 0 | SRC 0 | STK24 = 0

Cn1nccc1Nc1nccc(-c2cc3c(s2)C(C)(C)N(CCN2CCOCC2)C3=O)n1 (10 µM)
inactive: RET 0 | [1] 0 | RIOK1 = 0 | RIPK1 = 0 | RIPK2 = 0 | ROR2 = 0 | RPS6KA1 = 0 | SPHK1 = 0 | SRC 0 | STK24 = 0

Nc1ncnc2c1ncn2[C@@H]1O[C@H](CO)C[C@H]1O [Cordycepin] (10 µM)
inactive: RET 0 | [1] 0 | RIOK1 = 0 | RIPK1 = 0 | RIPK2 = 0 | ROR2 = 0 | RPS6KA1 = 0 | SPHK1 = 0 | SRC 0 | STK24 = 0

NC1(Cc2ccc(Cl)cc2)CCN(c2ncnc3[nH]ccc23)CC1 (10 µM)
inactive: RET 0 | [1] 0 | RIOK1 = 0 | RIPK1 = 0 | RIPK2 = 0 | ROR2 = 0 | RPS6KA1 = 0 | SPHK1 = 0 | SRC 0 | STK24 = 0

CC(C)CN(CC(=O)N1CCN(CC(OCc2ccc3ccccc3c2)c2ccc(Cl)cc2Cl)CC1)CC(C)C (stereo not given) [LYN-1604 (dihydrochloride)] (2.5 µM)
inactive: RET 0 | [1] 0 | RIOK1 = 0 | RIPK1 = 0 | RIPK2 = 0 | ROR2 = 0 | RPS6KA1 = 0 | SPHK1 = 0 | SRC 0 | STK24 = 0

O=C(/C=C/c1ccc(O[C@@H]2O[C@H](CO)[C@@H](O)[C@H](O)[C@H]2O[C@@H]2OC[C@](O)(CO)[C@H]2O)cc1)c1ccc(O)cc1O [Isoliquiritin apioside] (10 µM)
inactive: RET 0 | [1] 0 | RIOK1 = 0 | RIPK1 = 0 | RIPK2 = 0 | ROR2 = 0 | RPS6KA1 = 0 | SPHK1 = 0 | SRC 0 | STK24 = 0

N[C@H](Cc1c[nH]c2ccccc12)C(=O)N/N=C/c1ccc2nccnc2c1 [Rhosin (hydrochloride)] (10 µM)
inactive: RET 0 | [1] 0 | RIOK1 = 0 | RIPK1 = 0 | RIPK2 = 0 | ROR2 = 0 | RPS6KA1 = 0 | SPHK1 = 0 | SRC 0 | STK24 = 0

CCn1c(=O)c(-c2ccc(-c3cncs3)cc2Cl)cc2cnc(Nc3ccc(N4CCN(C)CC4)cc3)nc21 (2.5 µM)
inactive: RET 0 | [1] 0 | RIOK1 = 0 | RIPK1 = 0 | RIPK2 = 0 | ROR2 = 0 | RPS6KA1 = 0 | SPHK1 = 0 | SRC 0 | STK24 = 0

COCCOc1ccc(-c2cn(-c3ccccc3)c3nc[nH]c(=O)c23)cc1 (10 µM)
inactive: RET 0 | [1] 0 | RIOK1 = 0 | RIPK1 = 0 | RIPK2 = 0 | ROR2 = 0 | RPS6KA1 = 0 | SPHK1 = 0 | SRC 0 | STK24 = 0

O=C(NCCO)c1ccc2c(c1)nc(Nc1cccc(Cl)c1)c1ccncc12 [CK2 inhibitor 2] (10 µM)
inactive: RET 0 | [1] 0 | RIOK1 = 0 | RIPK1 = 0 | RIPK2 = 0 | ROR2 = 0 | RPS6KA1 = 0 | SPHK1 = 0 | SRC 0 | STK24 = 0

Cc1noc(C)c1-c1ccc(-c2cc(C(N)=O)c(NC(N)=O)s2)c(O[C@H]2CCNC2)c1 (10 µM)
inactive: RET 0 | [1] 0 | RIOK1 = 0 | RIPK1 = 0 | RIPK2 = 0 | ROR2 = 0 | RPS6KA1 = 0 | SPHK1 = 0 | SRC 0 | STK24 = 0

CCn1c(=O)c(-c2ccc(-c3cncc(C)n3)cc2Cl)cc2cnc(NCCC3CCN(C)CC3)nc21 (10 µM)
inactive: RET 0 | [1] 0 | RIOK1 = 0 | RIPK1 = 0 | RIPK2 = 0 | ROR2 = 0 | RPS6KA1 = 0 | SPHK1 = 0 | SRC 0 | STK24 = 0

COCCO[C@@H]1[C@H](O)[C@@H](CO)O[C@H]1n1cnc2c(=O)[nH]c(N)nc21 [2′-O-(2-Methoxyethyl)guanosine] (10 µM)
inactive: RET 0 | [1] 0 | RIOK1 = 0 | RIPK1 = 0 | RIPK2 = 0 | ROR2 = 0 | RPS6KA1 = 0 | SPHK1 = 0 | SRC 0 | STK24 = 0

CCN(CC)c1ccc2cc(C(=O)N3CCN(C(=O)C4=Cc5c(Br)cccc5S4(=O)=O)CC3)c(=O)oc2c1 (2 µM)
inactive: RET 0 | [1] 0 | RIOK1 = 0 | RIPK1 = 0 | RIPK2 = 0 | ROR2 = 0 | RPS6KA1 = 0 | SPHK1 = 0 | SRC 0 | STK24 = 0

Cc1csc(-c2nnc(Nc3ccc(Oc4ncccc4-c4ccnc(N)n4)cc3)c3ccccc23)c1 (2.5 µM)
inactive: RET 0 | [1] 0 | RIOK1 = 0 | RIPK1 = 0 | RIPK2 = 0 | ROR2 = 0 | RPS6KA1 = 0 | SPHK1 = 0 | SRC 0 | STK24 = 0

CN(CCNc1ccc2ncc(-c3ccc(C(N)=O)cc3)n2n1)C(=O)OC(C)(C)C (10 µM)
inactive: RET 0 | [1] 0 | RIOK1 = 0 | RIPK1 = 0 | RIPK2 = 0 | ROR2 = 0 | RPS6KA1 = 0 | SPHK1 = 0 | SRC 0 | STK24 = 0

Fc1ccc(-c2nc(-c3ccccc3F)[nH]c2-c2ccncc2)cc1 (2.5 µM)
inactive: RET 0 | [1] 0 | RIOK1 = 0 | RIPK1 = 0 | RIPK2 = 0 | ROR2 = 0 | RPS6KA1 = 0 | SPHK1 = 0 | SRC 0 | STK24 = 0

CN1CCN(c2ccc(C(=O)Nc3cc(-c4cccc(NS(=O)(=O)c5ccccc5)c4)[nH]n3)cc2)CC1 [BPR1J-097 Hydrochloride] (2.5 µM)
inactive: RET 0 | [1] 0 | RIOK1 = 0 | RIPK1 = 0 | RIPK2 = 0 | ROR2 = 0 | RPS6KA1 = 0 | SPHK1 = 0 | SRC 0 | STK24 = 0

COc1ccc(C(=O)Nc2sc3c(c2C(N)=O)CCCC3)cc1OC (10 µM)
inactive: RET 0 | [1] 0 | RIOK1 = 0 | RIPK1 = 0 | RIPK2 = 0 | ROR2 = 0 | RPS6KA1 = 0 | SPHK1 = 0 | SRC 0 | STK24 = 0

COc1ccc2[nH]cc(/C=C3\C(=O)Nc4ccc(NC(=O)CCN5CCCCC5)cc43)c2c1 (2.5 µM)
inactive: RET 0 | [1] 0 | RIOK1 = 0 | RIPK1 = 0 | RIPK2 = 0 | ROR2 = 0 | RPS6KA1 = 0 | SPHK1 = 0 | SRC 0 | STK24 = 0

c1cn2cc(-c3ccc4cn[nH]c4c3)nc(Nc3ccc(N4CCOCC4)cc3)c2n1 [Entospletinib] (10 µM)
inactive: RET 0 | [1] 0 | RIOK1 = 0 | RIPK1 = 0 | RIPK2 = 0 | ROR2 = 0 | RPS6KA1 = 0 | SPHK1 = 0 | SRC 0 | STK24 = 0

C=CC(=O)Nc1cc2c(Nc3ccc(OCc4ccccn4)c(Cl)c3)ncnc2cc1OCCN1CCOCC1 (10 µM)
inactive: RET 0 | [1] 0 | RIOK1 = 0 | RIPK1 = 0 | RIPK2 = 0 | ROR2 = 0 | RPS6KA1 = 0 | SPHK1 = 0 | SRC 0 | STK24 = 0

O=C(Nc1cc(Oc2cc(F)c(NC(=O)C3(C(=O)Nc4ccc(F)cc4)CC3)cc2F)ccn1)C1CC1 [Altiratinib] (10 µM)
inactive: RET 0 | [1] 0 | RIOK1 = 0 | RIPK1 = 0 | RIPK2 = 0 | ROR2 = 0 | RPS6KA1 = 0 | SPHK1 = 0 | SRC 0 | STK24 = 0

Ordered by formula weight (low to high): part of the list above.
c1cn2cc(-c3ccc4cn[nH]c4c3)nc(Nc3ccc(N4CCOCC4)cc3)c2n1 [Entospletinib] (10 µM)
inactive: RET 0 | [1] 0 | RIOK1 = 0 | RIPK1 = 0 | RIPK2 = 0 | ROR2 = 0 | RPS6KA1 = 0 | SPHK1 = 0 | SRC 0 | STK24 = 0

COc1ccc2[nH]cc(/C=C3\C(=O)Nc4ccc(NC(=O)CCN5CCCCC5)cc43)c2c1 (2.5 µM)
inactive: RET 0 | [1] 0 | RIOK1 = 0 | RIPK1 = 0 | RIPK2 = 0 | ROR2 = 0 | RPS6KA1 = 0 | SPHK1 = 0 | SRC 0 | STK24 = 0

C=CC(=O)Nc1cc2c(Nc3ccc(OCc4ccccn4)c(Cl)c3)ncnc2cc1OCCN1CCOCC1 (10 µM)
inactive: RET 0 | [1] 0 | RIOK1 = 0 | RIPK1 = 0 | RIPK2 = 0 | ROR2 = 0 | RPS6KA1 = 0 | SPHK1 = 0 | SRC 0 | STK24 = 0

Next part.

O=C1Nc2nc(-c3c(O)cccc3OCC3CC3)cc([C@@H]3CCCNC3)c2CO1 [Bay 65-1942 (hydrochloride)] (10 µM)
inactive: RET 0 | [1] 0 | RIOK1 = 0 | RIPK1 = 0 | RIPK2 = 0 | ROR2 = 0 | RPS6KA1 = 0 | SPHK1 = 0 | SRC 0 | STK24 = 0

COc1c(NC(=O)C(=O)c2ccc(OCCN3CCOCC3)c3ccccc23)cc(C(C)(C)C)cc1NS(C)(=O)=O (2.5 µM)
inactive: RET 0 | [1] 0 | RIOK1 = 0 | RIPK1 = 0 | RIPK2 = 0 | ROR2 = 0 | RPS6KA1 = 0 | SPHK1 = 0 | SRC 0 | STK24 = 0

Cc1ccc(S(=O)(=O)/C=C/C#N)cc1 (10 µM)
inactive: RET 0 | [1] 0 | RIOK1 = 0 | RIPK1 = 0 | RIPK2 = 0 | ROR2 = 0 | RPS6KA1 = 0 | SPHK1 = 0 | SRC 0 | STK24 = 0

Cn1cc(-c2ccc(CNc3cc(-c4cnc5cc(OCCCN6CCCC6)ccn45)ncn3)cc2)cn1 (10 µM)
inactive: RET 0 | [1] 0 | RIOK1 = 0 | RIPK1 = 0 | RIPK2 = 0 | ROR2 = 0 | RPS6KA1 = 0 | SPHK1 = 0 | SRC 0 | STK24 = 0

NCc1ccc(Nc2ncc(F)c(Nc3ccccc3)n2)cc1 (10 µM)
inactive: RET 0 | [1] 0 | RIOK1 = 0 | RIPK1 = 0 | RIPK2 = 0 | ROR2 = 0 | RPS6KA1 = 0 | SPHK1 = 0 | SRC 0 | STK24 = 0

Cc1ccc(Nc2cc(-c3cccc(N4C(=O)c5ccccc5C4=O)c3)ncn2)cc1NS(C)(=O)=O (10 µM)
inactive: RET 0 | [1] 0 | RIOK1 = 0 | RIPK1 = 0 | RIPK2 = 0 | ROR2 = 0 | RPS6KA1 = 0 | SPHK1 = 0 | SRC 0 | STK24 = 0

Cc1cc2cc(Nc3ccnc(Nc4ccc5[nH]c(C)cc5c4)n3)ccc2[nH]1 (2.5 µM)
inactive: RET 0 | [1] 0 | RIOK1 = 0 | RIPK1 = 0 | RIPK2 = 0 | ROR2 = 0 | RPS6KA1 = 0 | SPHK1 = 0 | SRC 0 | STK24 = 0

COc1ccc(C(=C2C(=O)Nc3ccccc32)c2ccc(OC)cc2)cc1 (10 µM)
inactive: RET 0 | [1] 0 | RIOK1 = 0 | RIPK1 = 0 | RIPK2 = 0 | ROR2 = 0 | RPS6KA1 = 0 | SPHK1 = 0 | SRC 0 | STK24 = 0
